In patent US20240208992A1 (Idorsia Pharmaceuticals Ltd, priority 2021, published 2024):

How the values were obtained:
peptide synthesis = conditions: for step yield: coupling step; for cyclisation yield: cyclisation step
[1] = Fmoc solid-phase peptide synthesis; Wang resin; HATU/DIPEA (solution); DCC or DIC with HOBt/DMAP for resin loading; conditions: whole synthesis, scale 0.135 mmol

Substance: (3'S,7'S,13′R)-13′-Benzyl-N-(2-(3-cyclopropylisoxazol-5-yl)ethyl)-20′-fluoro-7′-isobutyl-6′,9′-dimethyl-1′,5′,8′,11′-tetraoxo-2′,3′,4′,5′,6′,7′,8′,9′,11′,12′,13′,14′-dodecahydro-1′H-spiro[cyclobutane-1,10′-[1]oxa[4,7,10,14]tetraazacycloheptadecino[17,16-c]quinoline]-3′-carboxamide
- step yield (peptide synthesis): 67%

Substance: (3R,9S,13S)-3-benzyl-7-(2-cyclohexylethyl)-9-(cyclopropylmethyl)-17,18-dimethoxy-10-methyl-5,8,11,15-tetraoxo-2,3,4,5,6,7,8,9,10,11,12,13,14,15-tetradecahydrobenzo[p][1]oxa[4,7,10,14]tetraazacycloheptadecine-13-carboxylic acid
- step yield (peptide synthesis): 97.1%
- cyclisation yield (peptide synthesis): 13%

Substance: (3S,7S,10R,13R)-10,13-Dibenzyl-20-fluoro-7-isobutyl-6,9-dimethyl-N-(2-(3-methylisoxazol-5-yl)ethyl)-1,5,8,11-tetraoxo-1,2,3,4,5,6,7,8,9,10,11,12,13,14-tetradecahydro-[1]oxa[4,7,10,14]tetraazacycloheptadecino[17,16-c]quinoline-3-carboxamide
- step yield (peptide synthesis): 56%

Substance: (3S,7S,10R,13R)-13-benzyl-10-((benzyloxy)methyl)-7-isobutyl-N-(3-methoxyphenethyl)-6,9-dimethyl-1,5,8,11-tetraoxo-1,2,3,4,5,6,7,8,9,10,11,12,13,14-tetradecahydronaphtho[1,2-p][1]oxa[4,7,10,14]tetraazacycloheptadecine-3-carboxamide
- step yield (peptide synthesis): 80%
- cyclisation yield (peptide synthesis): 82%

Substance: (3S,7S,13R)-13-benzyl-7-isobutyl-6-methyl-1,5,8,11-tetraoxo-9-(((R)-tetrahydro-2H-pyran-2-yl)methyl)-1,2,3,4,5,6,7,8,9,10,11,12,13,14-tetradecahydronaphtho[1,2-p][1]oxa[4,7,10,14]tetraazacycloheptadecine-3-carboxylic acid
- step yield (peptide synthesis): 76%

Substance: (3S,7S,13R)—N-(2-(Benzo[d][1,3]dioxol-5-yl)ethyl)-13-benzyl-9-(((S)-chroman-3-yl)methyl)-7-isobutyl-6-methyl-1,5,8,11-tetraoxo-1,2,3,4,5,6,7,8,9,10,11,12,13,14-tetradecahydronaphtho[1,2-p][1]oxa[4,7,10,14]tetraazacycloheptadecine-3-carboxamide
- step yield (peptide synthesis): 84%
- cyclisation yield (peptide synthesis): 97%

Substance: (7R,13S,17S)-7-Benzyl-11-(3,3-dimethylbutyl)-13-isobutyl-14-methyl-9,12,15,19-tetraoxo-6,7,8,9,10,11,12,13,14,15,16,17,18,19-tetradecahydro-[1,3]dioxolo[4′,5′:4,5]benzo[1,2-p][1]oxa[4,7,10,14]tetraazacycloheptadecine-17-carboxylic acid
- isolated mass [1]: 22 mg
- isolated yield [1]: 26%
